Test results: the supplement of paper PMC12823440, “Inhibitors supercharge kinase turnover through native proteolytic circuits” (Nature, 2025)
Structures can show the parent of a compound that is named as a salt. This is one part of the list. The calls rarely recur for the same compound in another form.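 In K562 cells expressing nanoluciferase-fused kinases, luminescence was recorded at 4 h intervals between 2 and 18 h, normalized as percent of control with DMSO at 100% and a positive control at 0%. A significant (2 sigma) signal drop marks a time point as decreased. The authors' rule for a hit is not shown and takes in more than the number of time points.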

By UniProt entry, the sequences of proteins in these tests, tags left out. Where a name states a change or a piece, a line headed by the entry shows the natural chain unless it says otherwise.
UniProt Q15208: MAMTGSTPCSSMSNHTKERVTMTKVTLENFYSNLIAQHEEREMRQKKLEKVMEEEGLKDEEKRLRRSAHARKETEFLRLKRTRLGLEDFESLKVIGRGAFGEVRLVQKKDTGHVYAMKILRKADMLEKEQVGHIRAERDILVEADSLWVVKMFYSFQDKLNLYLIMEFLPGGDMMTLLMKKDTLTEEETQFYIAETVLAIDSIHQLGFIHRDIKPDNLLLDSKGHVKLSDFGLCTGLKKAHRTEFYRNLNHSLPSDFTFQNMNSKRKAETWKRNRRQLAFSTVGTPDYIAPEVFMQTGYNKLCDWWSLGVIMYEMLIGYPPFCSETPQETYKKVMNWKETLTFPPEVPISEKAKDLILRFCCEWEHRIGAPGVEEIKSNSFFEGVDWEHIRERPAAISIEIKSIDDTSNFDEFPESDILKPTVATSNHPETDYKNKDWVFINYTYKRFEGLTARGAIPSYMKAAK
UniProt P29597: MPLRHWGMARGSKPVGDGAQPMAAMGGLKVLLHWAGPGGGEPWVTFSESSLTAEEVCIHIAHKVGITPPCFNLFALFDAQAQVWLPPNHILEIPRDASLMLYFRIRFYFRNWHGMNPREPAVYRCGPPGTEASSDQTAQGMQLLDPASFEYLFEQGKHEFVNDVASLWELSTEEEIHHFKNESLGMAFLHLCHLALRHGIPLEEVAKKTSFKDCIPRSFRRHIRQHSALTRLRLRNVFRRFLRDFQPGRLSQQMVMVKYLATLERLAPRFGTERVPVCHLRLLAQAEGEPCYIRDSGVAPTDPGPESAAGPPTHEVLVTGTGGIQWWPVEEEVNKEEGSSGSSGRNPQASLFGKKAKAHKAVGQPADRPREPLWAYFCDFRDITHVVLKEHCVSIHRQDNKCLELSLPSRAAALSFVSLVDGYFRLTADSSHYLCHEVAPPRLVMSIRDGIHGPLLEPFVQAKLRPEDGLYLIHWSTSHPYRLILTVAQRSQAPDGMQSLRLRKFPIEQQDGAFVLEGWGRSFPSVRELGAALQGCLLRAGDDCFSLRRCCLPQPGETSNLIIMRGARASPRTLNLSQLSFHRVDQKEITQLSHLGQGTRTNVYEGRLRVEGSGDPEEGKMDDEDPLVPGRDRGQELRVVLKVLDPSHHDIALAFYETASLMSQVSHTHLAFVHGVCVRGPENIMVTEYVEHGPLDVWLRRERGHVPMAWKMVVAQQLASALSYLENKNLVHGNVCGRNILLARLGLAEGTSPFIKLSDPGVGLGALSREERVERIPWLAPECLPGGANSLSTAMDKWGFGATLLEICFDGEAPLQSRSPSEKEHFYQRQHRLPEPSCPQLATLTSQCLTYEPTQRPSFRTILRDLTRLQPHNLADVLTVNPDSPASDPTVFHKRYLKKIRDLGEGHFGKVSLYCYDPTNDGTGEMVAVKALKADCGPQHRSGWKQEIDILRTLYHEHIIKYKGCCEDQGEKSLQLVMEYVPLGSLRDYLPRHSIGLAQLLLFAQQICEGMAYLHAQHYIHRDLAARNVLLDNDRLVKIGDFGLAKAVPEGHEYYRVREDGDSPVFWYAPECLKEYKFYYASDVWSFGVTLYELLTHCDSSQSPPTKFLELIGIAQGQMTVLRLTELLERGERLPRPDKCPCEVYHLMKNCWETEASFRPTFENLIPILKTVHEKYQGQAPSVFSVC
UniProt Q6PHR2: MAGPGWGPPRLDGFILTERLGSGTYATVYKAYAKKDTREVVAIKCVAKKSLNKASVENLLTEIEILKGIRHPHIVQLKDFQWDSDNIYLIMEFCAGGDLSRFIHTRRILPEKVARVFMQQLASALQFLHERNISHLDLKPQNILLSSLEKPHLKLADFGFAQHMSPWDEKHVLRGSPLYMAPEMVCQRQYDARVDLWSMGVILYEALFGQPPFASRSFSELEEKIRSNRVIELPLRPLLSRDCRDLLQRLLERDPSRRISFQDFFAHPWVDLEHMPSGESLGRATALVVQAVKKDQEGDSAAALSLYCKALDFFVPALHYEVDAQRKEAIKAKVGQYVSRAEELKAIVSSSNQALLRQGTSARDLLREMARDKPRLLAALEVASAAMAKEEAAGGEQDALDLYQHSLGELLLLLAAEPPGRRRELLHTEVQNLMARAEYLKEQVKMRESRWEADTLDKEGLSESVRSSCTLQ
UniProt P07947, whole entry, looked up: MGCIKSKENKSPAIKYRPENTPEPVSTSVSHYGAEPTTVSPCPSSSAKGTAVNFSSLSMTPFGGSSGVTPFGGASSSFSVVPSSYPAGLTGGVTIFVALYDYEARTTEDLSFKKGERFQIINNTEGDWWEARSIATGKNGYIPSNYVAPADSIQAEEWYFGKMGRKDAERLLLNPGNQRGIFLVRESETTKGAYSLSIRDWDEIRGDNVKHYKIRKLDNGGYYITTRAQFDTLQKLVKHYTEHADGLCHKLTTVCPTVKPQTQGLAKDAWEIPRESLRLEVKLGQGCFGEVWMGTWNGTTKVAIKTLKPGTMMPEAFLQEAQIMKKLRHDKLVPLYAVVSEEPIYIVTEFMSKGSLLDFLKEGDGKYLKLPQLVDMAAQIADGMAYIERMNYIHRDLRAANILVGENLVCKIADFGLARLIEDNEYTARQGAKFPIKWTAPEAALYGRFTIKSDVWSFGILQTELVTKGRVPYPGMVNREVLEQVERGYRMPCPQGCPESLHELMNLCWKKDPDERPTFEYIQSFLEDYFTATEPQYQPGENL
UniProt P43403: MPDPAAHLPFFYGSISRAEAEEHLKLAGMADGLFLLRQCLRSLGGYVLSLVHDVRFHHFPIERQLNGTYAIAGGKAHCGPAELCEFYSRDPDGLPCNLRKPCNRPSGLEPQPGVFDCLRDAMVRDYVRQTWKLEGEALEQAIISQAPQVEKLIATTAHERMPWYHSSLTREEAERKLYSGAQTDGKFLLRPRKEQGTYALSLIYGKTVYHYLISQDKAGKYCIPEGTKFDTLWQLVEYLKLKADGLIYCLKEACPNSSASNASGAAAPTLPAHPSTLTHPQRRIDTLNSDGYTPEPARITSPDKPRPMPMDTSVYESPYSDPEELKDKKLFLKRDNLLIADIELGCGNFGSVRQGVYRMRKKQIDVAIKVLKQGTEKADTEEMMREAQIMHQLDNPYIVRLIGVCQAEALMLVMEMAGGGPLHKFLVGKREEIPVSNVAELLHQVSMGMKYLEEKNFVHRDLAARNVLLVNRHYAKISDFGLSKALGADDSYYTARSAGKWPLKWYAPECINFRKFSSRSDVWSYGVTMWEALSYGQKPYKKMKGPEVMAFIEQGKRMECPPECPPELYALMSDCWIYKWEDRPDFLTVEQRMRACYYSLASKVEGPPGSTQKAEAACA
UniProt P00519, whole entry: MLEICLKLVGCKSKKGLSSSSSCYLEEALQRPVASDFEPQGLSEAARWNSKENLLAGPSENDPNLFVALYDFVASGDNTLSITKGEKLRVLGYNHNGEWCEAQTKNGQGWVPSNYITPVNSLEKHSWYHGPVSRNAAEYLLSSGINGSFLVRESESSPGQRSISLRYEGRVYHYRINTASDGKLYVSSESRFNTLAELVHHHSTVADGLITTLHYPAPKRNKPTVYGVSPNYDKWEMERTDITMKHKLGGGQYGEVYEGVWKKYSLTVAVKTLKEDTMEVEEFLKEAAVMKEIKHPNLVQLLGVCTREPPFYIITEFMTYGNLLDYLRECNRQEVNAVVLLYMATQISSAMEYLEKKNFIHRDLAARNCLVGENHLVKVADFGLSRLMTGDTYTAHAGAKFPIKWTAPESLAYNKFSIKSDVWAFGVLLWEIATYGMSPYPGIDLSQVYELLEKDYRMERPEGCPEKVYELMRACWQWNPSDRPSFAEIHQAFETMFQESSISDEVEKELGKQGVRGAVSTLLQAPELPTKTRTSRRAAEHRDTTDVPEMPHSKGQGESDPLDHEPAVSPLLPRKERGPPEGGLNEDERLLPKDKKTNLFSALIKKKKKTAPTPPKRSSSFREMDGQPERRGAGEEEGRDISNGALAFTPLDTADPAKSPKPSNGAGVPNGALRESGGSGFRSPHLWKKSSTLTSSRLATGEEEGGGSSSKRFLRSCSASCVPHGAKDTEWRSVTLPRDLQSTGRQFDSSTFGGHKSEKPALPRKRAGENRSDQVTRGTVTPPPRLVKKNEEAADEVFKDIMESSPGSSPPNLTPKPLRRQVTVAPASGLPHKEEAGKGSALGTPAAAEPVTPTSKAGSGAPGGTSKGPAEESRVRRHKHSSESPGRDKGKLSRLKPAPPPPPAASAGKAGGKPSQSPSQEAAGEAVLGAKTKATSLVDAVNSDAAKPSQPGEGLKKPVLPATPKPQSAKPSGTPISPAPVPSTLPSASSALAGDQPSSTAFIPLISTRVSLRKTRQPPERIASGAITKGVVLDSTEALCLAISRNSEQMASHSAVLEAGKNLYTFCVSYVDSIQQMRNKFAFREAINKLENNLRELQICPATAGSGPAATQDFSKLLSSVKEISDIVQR
UniProt P10398: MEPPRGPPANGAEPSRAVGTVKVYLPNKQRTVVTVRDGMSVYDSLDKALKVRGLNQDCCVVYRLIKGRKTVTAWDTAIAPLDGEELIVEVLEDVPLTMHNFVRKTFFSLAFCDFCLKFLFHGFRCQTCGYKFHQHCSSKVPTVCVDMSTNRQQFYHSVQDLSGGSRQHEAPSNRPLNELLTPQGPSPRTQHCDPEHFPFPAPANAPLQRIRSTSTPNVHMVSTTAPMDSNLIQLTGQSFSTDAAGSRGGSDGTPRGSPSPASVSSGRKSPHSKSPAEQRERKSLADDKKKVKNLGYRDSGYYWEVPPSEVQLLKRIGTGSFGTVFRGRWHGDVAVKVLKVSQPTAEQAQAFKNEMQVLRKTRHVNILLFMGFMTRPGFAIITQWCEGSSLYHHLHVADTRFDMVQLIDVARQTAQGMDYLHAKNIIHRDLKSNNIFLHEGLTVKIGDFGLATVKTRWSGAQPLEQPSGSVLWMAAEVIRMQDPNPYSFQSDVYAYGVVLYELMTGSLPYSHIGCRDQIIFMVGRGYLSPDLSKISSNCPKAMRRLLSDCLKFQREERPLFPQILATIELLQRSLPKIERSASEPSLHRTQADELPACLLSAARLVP
UniProt O14965: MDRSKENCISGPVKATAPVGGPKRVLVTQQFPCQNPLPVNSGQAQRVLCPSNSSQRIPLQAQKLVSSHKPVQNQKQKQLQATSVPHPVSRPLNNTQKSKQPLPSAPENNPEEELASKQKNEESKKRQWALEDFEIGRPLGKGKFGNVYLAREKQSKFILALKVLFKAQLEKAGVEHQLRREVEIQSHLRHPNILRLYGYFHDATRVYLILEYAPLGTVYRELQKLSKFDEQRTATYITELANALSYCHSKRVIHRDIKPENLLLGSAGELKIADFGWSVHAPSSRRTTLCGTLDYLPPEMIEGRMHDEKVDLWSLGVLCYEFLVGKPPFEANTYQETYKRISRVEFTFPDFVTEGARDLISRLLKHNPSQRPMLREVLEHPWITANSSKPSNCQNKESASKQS
UniProt Q96GD4, whole entry: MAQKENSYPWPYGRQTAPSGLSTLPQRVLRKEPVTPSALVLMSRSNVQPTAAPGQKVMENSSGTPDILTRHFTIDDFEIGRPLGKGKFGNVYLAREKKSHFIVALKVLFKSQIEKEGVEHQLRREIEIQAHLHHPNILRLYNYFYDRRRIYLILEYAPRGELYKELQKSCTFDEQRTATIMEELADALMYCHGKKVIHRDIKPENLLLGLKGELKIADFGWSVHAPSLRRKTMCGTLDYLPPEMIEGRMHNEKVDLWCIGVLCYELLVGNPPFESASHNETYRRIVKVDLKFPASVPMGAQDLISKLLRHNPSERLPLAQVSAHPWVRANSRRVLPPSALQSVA
UniProt Q9UQB9: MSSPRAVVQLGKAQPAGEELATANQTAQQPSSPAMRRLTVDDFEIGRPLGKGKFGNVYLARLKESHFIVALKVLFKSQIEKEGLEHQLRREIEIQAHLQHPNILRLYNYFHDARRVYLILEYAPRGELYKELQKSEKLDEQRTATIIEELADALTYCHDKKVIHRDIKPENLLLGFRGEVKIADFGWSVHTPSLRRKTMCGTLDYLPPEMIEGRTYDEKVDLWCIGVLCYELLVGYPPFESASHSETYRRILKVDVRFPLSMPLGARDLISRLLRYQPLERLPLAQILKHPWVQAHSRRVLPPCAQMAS
UniProt P51451: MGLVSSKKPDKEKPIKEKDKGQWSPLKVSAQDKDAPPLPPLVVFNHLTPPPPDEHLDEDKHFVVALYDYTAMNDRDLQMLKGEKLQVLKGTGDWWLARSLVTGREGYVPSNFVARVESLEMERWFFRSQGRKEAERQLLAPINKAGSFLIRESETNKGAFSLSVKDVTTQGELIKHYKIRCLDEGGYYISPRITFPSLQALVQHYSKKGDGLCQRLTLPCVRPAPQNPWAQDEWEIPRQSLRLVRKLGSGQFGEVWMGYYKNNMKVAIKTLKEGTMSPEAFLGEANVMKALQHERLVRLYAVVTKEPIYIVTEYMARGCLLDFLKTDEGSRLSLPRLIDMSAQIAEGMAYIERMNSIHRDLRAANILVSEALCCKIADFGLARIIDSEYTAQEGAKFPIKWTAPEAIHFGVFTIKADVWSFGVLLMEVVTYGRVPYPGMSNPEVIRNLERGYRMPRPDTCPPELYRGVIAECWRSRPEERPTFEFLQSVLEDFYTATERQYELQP

Assays:
Details in all cases: K562; 2-18 h
[1] = target: STK38 (UniProt Q15208); experiment: kinase-Nluc reporter destabilization hit call (1 = scored as downregulated) (binary); higher = compound decreases kinase abundance
[2] = target: SYK (UniProt P43405); experiment: as above
[3] = target: TEC (UniProt P42680); experiment: as above
[4] = target: TYK2 (UniProt P29597); experiment: as above
[5] = target: ULK3 (UniProt Q6PHR2); experiment: as above
[6] = target: YES1 (UniProt P07947); experiment: as above
[7] = target: ZAK (UniProt Q9NYL2); experiment: as above
[8] = target: ZAP70 (UniProt P43403); experiment: as above
[9] = target: ABL1 (UniProt P00519); experiment: number of time points (of 5) at which kinase-Nluc abundance scored as decreased, DMSO-normalised (count); higher = more persistent destabilization
[10] = target: AKT1 (UniProt P31749); experiment: as above
[11] = target: ALK (UniProt Q9UM73); experiment: as above
[12] = target: ARAF (UniProt P10398); experiment: as above
[13] = target: AURKA (UniProt O14965); experiment: as above
[14] = target: AURKB (UniProt Q96GD4); experiment: as above
[15] = target: AURKC (UniProt Q9UQB9); experiment: as above
[16] = target: BLK (UniProt P51451); experiment: as above
[17] = target: BMX (UniProt P51813); experiment: as above
[18] = target: BRAF (UniProt P15056); experiment: as above
[19] = test system: BRAF_V600E; experiment: as above
[20] = target: BTK (UniProt Q06187); experiment: as above

SMILES | kinase-Nluc reporter destabilization hit call [1] | kinase-Nluc reporter destabilization hit call [2] | kinase-Nluc reporter destabilization hit call [3] | kinase-Nluc reporter destabilization hit call [4] | kinase-Nluc reporter destabilization hit call [5] | kinase-Nluc reporter destabilization hit call [6] | kinase-Nluc reporter destabilization hit call [7] | kinase-Nluc reporter destabilization hit call [8] | number of time points [9] | number of time points [10] | number of time points [11] | number of time points [12] | number of time points [13] | number of time points [14] | number of time points [15] | number of time points [16] | number of time points [17] | number of time points [18] | number of time points [19] | number of time points [20]
CN1CCC(c2ccccc2CC(C)(C)Nc2nc(N3CCOCC3)nc(-n3c(S(C)(=O)=O)nc4ccccc43)n2)CC1 (10 µM) | inactive: 0 | inactive: 0 | inactive: 0 | inactive: 0 | inactive: 0 | inactive: 0 | inactive: 0 | inactive: 0 | 0 | 0 | 0 | 0 | 0 | 0 | 0 | 0 | 0 | 0 | 0 | 0
O=C(Nc1nc2cccc(-c3ccc(CN4CCS(=O)(=O)CC4)cc3)n2n1)C1CC1 [Filgotinib] (2.5 µM) | inactive: 0 | inactive: 0 | inactive: 0 | inactive: 0 | inactive: 0 | inactive: 0 | inactive: 0 | inactive: 0 | 0 | 0 | 0 | 0 | 0 | 0 | 0 | 0 | 0 | 0 | 0 | 0
C[C@H]1CNC(=O)c2cnn3ccc(nc23)N[C@H](C)c2cc(F)ccc2O1 [Repotrectinib] (2.5 µM) | inactive: 0 | inactive: 0 | inactive: 0 | inactive: 0 | inactive: 0 | inactive: 0 | inactive: 0 | inactive: 0 | 1 | 0 | 0 | 0 | 1 | 0 | 0 | 1 | 1 | 1 | 2 | 0
O=C1c2cccc(O)c2C(=O)c2c(O)cccc21 [Danthron] (10 µM) | inactive: 0 | inactive: 0 | inactive: 0 | inactive: 0 | inactive: 0 | inactive: 0 | inactive: 0 | inactive: 0 | 0 | 0 | 0 | 0 | 0 | 0 | 0 | 0 | 0 | 0 | 0 | 0
COc1cc(/C=C/c2ccc(NC(=O)/C=C/c3cc(OC)c(OC)c(OC)c3)cc2)cc(OC)c1 (2.5 µM) | inactive: 0 | inactive: 0 | inactive: 0 | inactive: 0 | inactive: 0 | inactive: 0 | inactive: 0 | inactive: 0 | 0 | 0 | 0 | 0 | 0 | 0 | 0 | 0 | 0 | 0 | 0 | 0
C=CC(=O)N[C@H]1CCOC[C@H]1Nc1ncc2cc(-c3c(Cl)c(OC)cc(OC)c3Cl)ccc2n1 [Fisogatinib] (10 µM) | inactive: 0 | inactive: 0 | inactive: 0 | inactive: 0 | inactive: 0 | inactive: 0 | inactive: 0 | inactive: 0 | 0 | 0 | 0 | 0 | 0 | 0 | 0 | 0 | 0 | 0 | 0 | 0
CCCC[C@H](CO)Nc1nc(NC)ncc1OC [Interferon receptor inducer-1] (10 µM) | inactive: 0 | inactive: 0 | inactive: 0 | inactive: 0 | inactive: 0 | inactive: 0 | inactive: 0 | inactive: 0 | 0 | 0 | 0 | 0 | 0 | 0 | 0 | 0 | 0 | 0 | 0 | 0
Cc1c(C(=O)Nc2ccc(Oc3ccnc4cc(OCC(C)(C)O)ccc34)c(F)c2)c(=O)n(-c2ccccc2)n1C [Ningetinib Tosylate] (10 µM) | inactive: 0 | inactive: 0 | inactive: 0 | inactive: 0 | inactive: 0 | inactive: 0 | inactive: 0 | inactive: 0 | 2 | 0 | 1 | 0 | 3 | 1 | 0 | 0 | 3 | 3 | 1 | 0
C=CC(=O)N1CCN(c2nc(OC[C@@H]3CCCN3C)nc3c2CCN(c2cccc4cccc(C)c24)C3)C[C@@H]1CC#N (2.5 µM) | inactive: 0 | inactive: 0 | inactive: 0 | inactive: 0 | inactive: 0 | inactive: 0 | inactive: 0 | inactive: 0 | 0 | 0 | 0 | 0 | 0 | 0 | 0 | 0 | 0 | 0 | 0 | 0
C[C@@H]1CN(Cc2cn[nH]c2-c2ccc(C#N)cc2)CCN1c1ccc(C(F)(F)F)cn1 (2.5 µM) | inactive: 0 | inactive: 0 | inactive: 0 | inactive: 0 | inactive: 0 | inactive: 0 | inactive: 0 | inactive: 0 | 0 | 0 | 0 | 0 | 0 | 0 | 0 | 0 | 0 | 0 | 0 | 0
Cn1cc(C2=C(c3c4n(c5ccccc35)CCC(CN)C4)C(=O)NC2=O)c2ccccc21 (stereo not given) [Bisindolylmaleimide X (hydrochloride)] (2.5 µM) | inactive: 0 | inactive: 0 | inactive: 0 | inactive: 0 | inactive: 0 | inactive: 0 | inactive: 0 | inactive: 0 | 0 | 0 | 0 | 0 | 0 | 0 | 0 | 0 | 0 | 0 | 0 | 0
